Results are given in words; binding and its absence hold for the method and conditions named. In cells and extracts the contact can be indirect. These calls come from enrichment with a bait or labelling near it, and not all partners need be listed.
T1: SYMPK (mouse (endogenous in spermatogenic cells of P16 testes)) (UniProt Q80X82)
T1 sequence: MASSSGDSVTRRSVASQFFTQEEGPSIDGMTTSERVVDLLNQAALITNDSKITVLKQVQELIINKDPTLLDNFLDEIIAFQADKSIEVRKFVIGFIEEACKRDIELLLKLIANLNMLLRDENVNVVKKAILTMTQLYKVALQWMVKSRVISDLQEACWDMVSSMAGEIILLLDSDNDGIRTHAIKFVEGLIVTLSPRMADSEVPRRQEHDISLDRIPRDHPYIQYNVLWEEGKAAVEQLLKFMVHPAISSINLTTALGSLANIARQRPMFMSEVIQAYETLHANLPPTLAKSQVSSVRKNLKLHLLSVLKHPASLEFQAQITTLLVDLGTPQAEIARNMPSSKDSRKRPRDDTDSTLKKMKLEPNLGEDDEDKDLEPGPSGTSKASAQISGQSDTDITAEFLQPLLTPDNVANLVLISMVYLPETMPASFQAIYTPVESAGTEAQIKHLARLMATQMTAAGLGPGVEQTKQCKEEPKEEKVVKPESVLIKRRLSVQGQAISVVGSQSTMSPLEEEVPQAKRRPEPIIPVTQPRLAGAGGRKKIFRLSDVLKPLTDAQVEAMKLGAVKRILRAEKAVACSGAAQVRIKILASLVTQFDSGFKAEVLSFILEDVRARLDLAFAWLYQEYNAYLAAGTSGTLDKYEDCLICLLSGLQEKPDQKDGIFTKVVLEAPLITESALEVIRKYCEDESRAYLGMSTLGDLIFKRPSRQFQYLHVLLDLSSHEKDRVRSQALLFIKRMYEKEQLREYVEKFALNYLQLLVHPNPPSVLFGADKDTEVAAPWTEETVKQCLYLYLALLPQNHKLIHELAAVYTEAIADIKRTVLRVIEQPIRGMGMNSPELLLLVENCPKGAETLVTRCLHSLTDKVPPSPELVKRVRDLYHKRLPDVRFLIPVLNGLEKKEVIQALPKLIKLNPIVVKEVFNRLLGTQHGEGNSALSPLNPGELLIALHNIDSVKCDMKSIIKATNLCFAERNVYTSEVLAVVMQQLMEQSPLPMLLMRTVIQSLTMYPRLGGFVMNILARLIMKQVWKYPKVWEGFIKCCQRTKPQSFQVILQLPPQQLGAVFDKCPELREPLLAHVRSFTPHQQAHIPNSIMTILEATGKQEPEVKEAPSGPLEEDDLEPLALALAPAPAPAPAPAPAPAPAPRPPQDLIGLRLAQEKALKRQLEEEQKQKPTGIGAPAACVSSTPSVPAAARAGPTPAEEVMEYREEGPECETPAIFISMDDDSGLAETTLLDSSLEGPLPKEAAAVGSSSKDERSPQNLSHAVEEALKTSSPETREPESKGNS

Protein sequences, listed by entry. Tags and fused reporters are not part of them.
UniProt Q9R1C7: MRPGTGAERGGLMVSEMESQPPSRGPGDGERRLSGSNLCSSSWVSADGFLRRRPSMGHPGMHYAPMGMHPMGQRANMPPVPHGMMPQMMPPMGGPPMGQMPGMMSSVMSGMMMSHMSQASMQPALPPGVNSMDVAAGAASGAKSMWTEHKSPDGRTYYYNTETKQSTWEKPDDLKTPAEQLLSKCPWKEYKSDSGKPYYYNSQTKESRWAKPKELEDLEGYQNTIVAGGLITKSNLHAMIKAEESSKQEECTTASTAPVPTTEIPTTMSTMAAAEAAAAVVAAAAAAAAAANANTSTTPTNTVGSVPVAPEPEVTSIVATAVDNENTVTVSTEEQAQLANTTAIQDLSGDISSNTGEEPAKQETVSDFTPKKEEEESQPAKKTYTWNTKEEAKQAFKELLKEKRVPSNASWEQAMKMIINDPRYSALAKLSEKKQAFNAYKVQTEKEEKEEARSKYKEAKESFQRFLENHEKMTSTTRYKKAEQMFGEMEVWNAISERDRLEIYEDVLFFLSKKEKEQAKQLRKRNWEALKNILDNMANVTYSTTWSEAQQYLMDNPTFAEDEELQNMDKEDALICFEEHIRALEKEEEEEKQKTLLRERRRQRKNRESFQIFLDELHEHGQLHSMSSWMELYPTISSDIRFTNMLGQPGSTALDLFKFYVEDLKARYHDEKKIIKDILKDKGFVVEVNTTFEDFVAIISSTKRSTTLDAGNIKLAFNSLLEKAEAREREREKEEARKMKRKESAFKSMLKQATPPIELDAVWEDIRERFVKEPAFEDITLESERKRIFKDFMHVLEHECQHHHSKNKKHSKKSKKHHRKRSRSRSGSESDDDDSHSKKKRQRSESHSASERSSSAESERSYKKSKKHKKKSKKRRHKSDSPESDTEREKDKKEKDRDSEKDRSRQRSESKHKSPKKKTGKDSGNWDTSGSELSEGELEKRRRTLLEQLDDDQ
UniProt Q99KP6: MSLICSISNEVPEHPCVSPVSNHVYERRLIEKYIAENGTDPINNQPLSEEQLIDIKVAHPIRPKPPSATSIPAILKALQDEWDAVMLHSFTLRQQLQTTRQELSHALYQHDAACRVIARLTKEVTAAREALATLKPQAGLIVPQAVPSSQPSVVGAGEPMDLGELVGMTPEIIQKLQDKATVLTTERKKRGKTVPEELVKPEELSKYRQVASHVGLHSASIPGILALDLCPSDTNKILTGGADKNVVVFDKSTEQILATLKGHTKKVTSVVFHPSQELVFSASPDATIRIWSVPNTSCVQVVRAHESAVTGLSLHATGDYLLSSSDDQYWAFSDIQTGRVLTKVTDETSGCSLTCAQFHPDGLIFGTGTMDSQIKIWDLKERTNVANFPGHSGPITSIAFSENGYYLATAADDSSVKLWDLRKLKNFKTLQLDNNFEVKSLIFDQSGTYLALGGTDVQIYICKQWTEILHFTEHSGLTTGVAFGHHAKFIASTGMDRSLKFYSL
UniProt O35286: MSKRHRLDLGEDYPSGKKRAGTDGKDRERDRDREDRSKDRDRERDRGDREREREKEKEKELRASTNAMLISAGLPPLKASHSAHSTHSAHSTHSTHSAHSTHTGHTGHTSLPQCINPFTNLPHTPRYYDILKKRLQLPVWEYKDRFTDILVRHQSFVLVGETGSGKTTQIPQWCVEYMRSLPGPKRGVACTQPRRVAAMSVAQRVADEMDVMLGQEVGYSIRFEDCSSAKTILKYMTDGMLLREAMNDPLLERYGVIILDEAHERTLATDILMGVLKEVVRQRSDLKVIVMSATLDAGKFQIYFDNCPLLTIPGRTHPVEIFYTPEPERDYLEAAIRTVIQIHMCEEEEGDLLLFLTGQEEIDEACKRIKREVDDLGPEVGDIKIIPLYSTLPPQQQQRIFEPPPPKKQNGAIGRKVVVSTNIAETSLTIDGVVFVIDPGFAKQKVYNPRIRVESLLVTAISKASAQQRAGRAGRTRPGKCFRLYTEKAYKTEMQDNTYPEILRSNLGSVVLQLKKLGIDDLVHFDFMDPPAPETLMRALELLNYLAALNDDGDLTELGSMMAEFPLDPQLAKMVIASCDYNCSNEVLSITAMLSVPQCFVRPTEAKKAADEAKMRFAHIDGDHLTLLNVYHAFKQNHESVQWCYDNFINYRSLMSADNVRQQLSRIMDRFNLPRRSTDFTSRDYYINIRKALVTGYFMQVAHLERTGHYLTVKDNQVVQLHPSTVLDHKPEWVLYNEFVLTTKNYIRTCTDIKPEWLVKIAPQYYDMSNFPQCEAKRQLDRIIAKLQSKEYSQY


Biological target: T1, SYMPK (mouse (endogenous in spermatogenic cells of P16 testes))
Assay: affinity purification with mass spectrometry; anti-SYMPK antibody and protein A agarose beads on lysates of spermatogenic cells of P16 testes from wt and Sympk cKO(Stra8-Cre) mice; 50 mM Tris pH 7.5, 150 mM NaCl, 1% NP-40, 0.5% sodium deoxycholate, 1 mM DTT; lysates treated with RNase A and DNase; 4°C; HPLC and high-resolution mass …

Molecule	binding
PRPF40a (from UniProt Q9R1C7 1-953)	binds
PRPF19 (from UniProt Q99KP6 1-504)	binds
DHX15 (pre-mRNA-splicing factor ATP-dependent RNA DEAH-box helicase 15) (from UniProt O35286 1-795)	binds

Second part, the molecule after the results:

binding	Molecule
binds	CWC22 (pre-mRNA-splicing factor CWC22 homolog) (protein, UniProt Q8C5N3 1-908) MKSSVAHMKSSGHNRRETHSSYRRSSSPEDRYTEQERSPRDRGYSDYSRSDYERSRRGYSYDDSMESRSRDREKRRERERDADHRKRSRKSPSPDRSPARGGGQSSPQEEPTWKKKKDELDPLLTRTGGAYIPPAKLRMMQEQITDKSSLAYQRMSWEALKKSINGLINKVNISNISIIIQELLQENIVRGRGLLSRSVLQAQSASPIFTHVYAALVAIINSKFPQIGELILKRLILNFRKGYRRNDKQLCLTASKFVAHLINQNVAHEVLCLEMLTLLLERPTDDSVEVAIGFLKECGLKLTQVSPRGINAIFERLRNILHESEIDKRVQYMIEVMFAVRKDGFKDHPVILEGLDLVEEDDQFTHMLPLEDDYNPEDVLNVFKMDPNFMENEEKYKAIKKEILDEGDSDSNTDQGAGSSEDEEEEDEEEEGEDEEGGQKVTIHDKTEINLVSFRRTIYLAIQSSLDFEECAHKLLKMEFAESQTKELCNMILDCCAQQRTYEKFFGLLAGRFCMLKKEYMESFESIFKEQYDTIHRLETNKLRNVAKMFAHLLYTDSLPWSVLECIKLSEETTTSSSRIFVKIFFQELCEYMGLPKLNARLKDETLQPFFEGLLPRDNPRNTRFAINFFTSIGLGGLTDELREHLKNTPKVIVAQKPEAEQKKPALTSSSSESSSASDSSDSESDSSESSSESSSDASDSSSSSSTQSSTSGITAHSAKGTRKKRQGKARGEEVDKLARGHQALERRREGGREDQRHQEGRTERARSERRRAQNSRDADWRDPLAKHIDDRSHENSHSRVGNGREQGSHREPEDRHGEPKKRRERRDSFSENEKQRSRNQDSDNVRRKDRSKSRERSRRHSGHKGDDARCQNSAERRWEKPGRRPEQSRESKRSQDRRREKSPTTQK
binds	WTAP (pre-mRNA-splicing regulator WTAP) (protein, UniProt Q9ER69 1-396) MTNEEPLPKKVRLSETDFKVMARDELILRWKQYEAYVQALEGKYTDLNSNDVTGLRESEEKLKQQQQESARRENILVMRLATKEQEMQECTTQIQYLKQVQQPSVAQLRSTMVDPAINLFFLKMKGELEQTKDKLEQAQNELSAWKFTPDSQTGKKLMAKCRMLIQENQELGRQLSQGRIAQLEAELALQKKYSEELKSSQDELNDFIIQLDEEVEGMQSTILVLQQQLKETRQQLAQYQQQQSQASAPSTSRTTSSEPVDQAEVTSKDCSRLANGPSNGSSSRQRTSGSGFHREGSTPEDDFPSSSGNGNKASNSSEERTGRGGSSYINPLSAGYESVDSPTGSENSLTHHSNDTDSSHDPQEEKAVSGKGNRTVGSRHVQNGLDSSVNVQGAVL

Reference: paper PMC8380814
